Results reported in the supplement of paper PMC12067093, “Discovery and optimisation of a covalent ligand for TRIM25 and its application to targeted protein ubiquitination” (Chemical Science, 2025).
This is one part of the list.

Compound: CC1Cc2ccccc2N1C(=O)C1CCCN(C1)C(=O)CCl (mixture of isomers) [TRIM25 ligand 11 (diastereomer mixture)]
Assay: probe-labelled cysteine peptide fold change vs DMSO (competition) (log2 fold change); higher = less target engagement (more negative = stronger competition)
Details: THP-1, incubation time: 4 h
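Further: competitive chemoproteomic profiling in live THP-1 cells with an iodoacetamide desthiobiotin (IA-DTB) probe, comparing probe-labelled peptide intensities in compound-treated cells against DMSO-treated controls.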

Target	probe-labelled cysteine peptide fold change (10 µM)	probe-labelled cysteine peptide fold change (50 µM)
IGFBP4_P22692_249_GELDCHQLADSFRE (UniProt P22692)	-0.0513	-0.197
IFT88_Q13099_162_EVNELVEESCIANSCGDLK (UniProt Q13099)	-0.0236	-0.195
ILKAP_Q9H0C8_301_CGVTSVPDIRR (UniProt Q9H0C8)	-0.168	0.0621
IARS_P41252_526_ISEVFDCWFESGSMPYAQVHYPFENKR (UniProt P41252)	0.0141	-0.0337
HUWE1_Q7Z6Z7_790_FVESILSNNTTDDHCQEFVNQK (UniProt Q7Z6Z7)	-0.153	-0.214
HYAL3_O43820_356_AAMACSHQR (UniProt O43820)	0.0324	0.152
IMPA1_P29218_184_LFCIPVHGIR (UniProt P29218)	-0.0315	0.0538
IL17RA_Q96F46_469_CDHGKPVGDLFTAAMNMILPDFK (UniProt Q96F46)	0.227	0.431
IL18_Q14116_74_NLNDQVLFIDQGNRPLFEDMTDSDCRDNAPR (UniProt Q14116)	-0.0363	-0.0834
IDH2_P48735_402_VCVETVESGAMTK (UniProt P48735)	0.0174	0.109
HUWE1_Q7Z6Z7_4211_EYVHLVCQMR (UniProt Q7Z6Z7)	-0.0655	0.0277
IKBKB_O14920_524_EMEQAVELCGR (UniProt O14920)	0.182	0.0969
IARS2_Q9NSE4_883_KPGLEEAVESACAMR (UniProt Q9NSE4)	0.0328	0.0447
IARS_P41252_120_MGITEYNNQCR (UniProt P41252)	0.0787	0.106
ILF2_Q12905_37_GGPGGGFRPFVPHIPFDFYLCEMAFPR (UniProt Q12905)	-0.147	-0.158
INO80_Q9ULG1_13_DDGGCTELAK (UniProt Q9ULG1)	-0.0437	-0.281
IMPDH1_P20839_215_GKLPIVNDCDELVAIIAR (UniProt P20839)	-0.173	0.0621
IL18_Q14116_10_AAEPVEDNCINFVAMK (UniProt Q14116)	0.318	0.296
IFIT2_P09913_140_IESPELDCEEGWTR (UniProt P09913)	-0.186	-0.263
IGF2R_P11717_538_GCPEDAAVCAVDK (UniProt P11717)	0.0423	-0.0501

Target	probe-labelled cysteine peptide fold change (10 µM)	probe-labelled cysteine peptide fold change (50 µM)
HTT_P42858_777_GATAILCGTLICSILSR (UniProt P42858)	-0.112	0.306
IGBP1_P78318_116+118_EHFINYLTQCHCYHVAEFELPK (UniProt P78318)	0.0719	0.0982
IDH2_P48735_154_NILGGTVFREPIICK (UniProt P48735)	-0.0639	-0.083
IKZF1_Q13422_394_EASPSNSCQDSTDTESNNEEQR (UniProt Q13422)	0.184	-0.141
IL17RA_Q96F46_632_EPGSQACLAIDPLVGEEGGAAVAK (UniProt Q96F46)	0.193	-0.0404
IDE_P14735_414_AEGPQEWVFQECK (UniProt P14735)	0.0212	0.0564
IFI16_Q16666_679_INQLCSQTK (UniProt Q16666)	-0.0511	0.00297
IMPAD1_Q9NX62_302_KWDICAGNAILK (UniProt Q9NX62)	0.0831	0.13
IGF2R_P11717_1856_DGGVCLLSGTK (UniProt P11717)	-0.0798	-0.0318
IARS2_Q9NSE4_521_RPYWCISR (UniProt Q9NSE4)	-0.0354	0.196
IFIH1_Q9BYX4_138_CMEEELLTIEDR (UniProt Q9BYX4)	-0.00673	-0.191
IARS2_Q9NSE4_819_SCQTALVEILDVIVR (UniProt Q9NSE4)	0.153	-0.107
IARS_P41252_87_RFGWDCHGLPVEYEIDK (UniProt P41252)	-0.0612	0.00729
HUWE1_Q7Z6Z7_1879_VLGPAACR (UniProt Q7Z6Z7)	-0.135	0.0352
ICAM3_P32942_407_ATCPQHLK (UniProt P32942)	-0.0217	0.0837
HUWE1_Q7Z6Z7_4099_VTYTINPSSHCNPNHLSYFK (UniProt Q7Z6Z7)	0.423	-0.332
INF2_Q27J81_971_KGPGKQEEVCVIDALLADIRK (UniProt Q27J81)	-0.359	-0.314
IDH3B_O43837_233_LGDGLFLQCCEEVAELYPK (UniProt O43837)	0.314	0.514
IGF2R_P11717_1270_LSSDVCPTSDK (UniProt P11717)	-0.0313	-0.108
